PubChem BioAssay AID504791, Drosophila RNAi Screening Center – 2011

Test: 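Factors in Argonaute-based small RNA production and activity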 (primary screen)
System: Drosophila S2-derived reporter cells
Knock-down reagent: long dsRNA against Drosophila genes, about 150-250 ng dsRNA per well (siRNA assay); about 80-120 ng (miRNA assay)
Time to read-out: about 5 days (siRNA assay); about 4 days (miRNA assay)
Treatment: copper sulfate induction of reporters: 25 µM (siRNA assay); 200 mM stated (miRNA assay), 1-2 days before reading
Measured: 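Per-well ratio of Renilla over firefly light, expressed relative to that plate's average ratio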
Units: stable assay Renilla, run 1 in luminescence; stable assay firefly, run 1 in luminescence
Rule for the call: 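a well was a first-pass pick when its plate-scaled ratio rose above 1.5 (siRNA assay) or 1.6 (miRNA assay), or dropped below 0.6; a gene counted only if two separate dsRNAs agreed on retest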
The deposit covers about 23,000 reagents; below is an unselected part of those that have a named target and a result. In the full data, 199 (0.86%) were called active. 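Plate-scaled ratios behind the calls are not deposited; printed light signals are raw; many rows marked increased or decreased are still called inactive.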 No sequences are given here. Not stated in the record: the direction of the score.

For CG4576 [DRSC15604], the entry reads stable assay Renilla, run 1 = 6734; stable assay firefly, run 1 = 3.22e5; inactive.
With knock-down of Fak (Focal adhesion kinase) [DRSC07426], the screen gave stable assay Renilla, run 1 = 6155; stable assay firefly, run 1 = 3.39e5; inactive.
CG34210 [DRSC04579] scored stable assay Renilla, run 1 = 6128; stable assay firefly, run 1 = 3.72e5; inactive.
Knock-down of Ilp1 (Insulin-like peptide 1) [DRSC10174] gave: stable assay Renilla, run 1 = 8158; stable assay firefly, run 1 = 3.76e5; inactive.
CG11231 (retired record) [DRSC17207] scored stable assay Renilla, run 1 = 6595; stable assay firefly, run 1 = 4.10e5; inactive.
With knock-down of Or43b (Odorant receptor 43b) [DRSC07486] the results were stable assay Renilla, run 1 = 6567; stable assay firefly, run 1 = 3.74e5; inactive.
For CG3687 [DRSC06850], the entry reads stable assay Renilla, run 1 = 6606; stable assay firefly, run 1 = 3.15e5; inactive.
For N (Notch) [DRSC18685] the deposit lists stable assay Renilla, run 1 = 5875; stable assay firefly, run 1 = 3.07e5; inactive.
With knock-down of nonA (no on or off transient A) [DRSC20357], the record shows stable assay Renilla, run 1 = 4975; stable assay firefly, run 1 = 5.02e5; inactive.
After knock-down of Vps36 (Vacuolar protein sorting 36) [DRSC09785] the results were stable assay Renilla, run 1 = 5803; stable assay firefly, run 1 = 3.51e5; inactive.
RpL39 (Ribosomal protein L39) [DRSC04651] gave stable assay Renilla, run 1 = 8132; stable assay firefly, run 1 = 4.32e5; inactive.
Silencing of CG5861 [DRSC02907] resulted in: stable assay Renilla, run 1 = 9481; stable assay firefly, run 1 = 4.89e5; inactive.
